Assay results reported in patent US20070105931A1, “Methods and compositions for inhibiting the proliferation of prostate cancer cells” (Mayo Foundation for Medical Education and Research, priority 2003, published 2007).
At least one structure is not confirmed: it was looked up by name or label, or the drawing left a doubt.

Columns and labels:
[1] = system: PSA; assay: IL6-induced PSA protein expression in LNCaP cells; assay type: cell-based, human; details: 50 μM, IL6 50 ng/ml, 72 hrs, p<0.05
[2] = system: STAT3; assay: STAT3 responsive element luciferase reporter in LNCaP cells; details: celecoxib 50 μM, nimesulide 100 μM, IL6 25-50 ng/ml, six hours
[3] = system: AR promoter (−1380/+577); assay: AR promoter-luciferase reporter assay in LNCaP cells; details: 1 nM Mib, 24 h, FIG. 3A
[4] = system: FKBP51; assay: Western blot of androgen-up-regulated FKBP51 protein; assay type: cell-based, human; details: 1 nM Mib
Description: (§1) Cells were seeded at 1×10^5 cells/plate in 100 mm dishes. […] The cells were collected by centrifugation and washed with nimesulide for 15 or 24 h. The cells were collected by centrifugation and washed with cold PBS. Cell lysates were prepared in radioimmunoprecipitation assay buffer (PBS containing 1% NP40, 0.5% sodium deoxycholate, 0.1% SDS plus freshly added protease inhibitors, 100 μg/ml phenylmethylsulfonyl fluoride, 30 μl/ml aprotinin, and 1 mM sodium orthovanadate) and used for Western blot analysis. The sample filters were immunoblotted with c-Jun, phospho-c-Jun (Cell Signaling, Beverly, Mass.), AR (PharMingen, San Diego, Calif.), and FKBP51 (a gift from Dr. D. O. Toft; Mayo Clinic) specific primary antibodies and horseradish peroxidase-conjugated secondary antibodies and visualized by enhanced chemiluminescence (Amersham Pharmacia, Piscataway, N.J.).

[5] = system: AR; assay: Western blot of AR protein expression; assay type: cell-based, human
Description: as §1

[6] = system: STAT3; assay: Western blot of STAT3 and phosphorylated STAT3 in IL6-treated LNCaP cells; assay type: cell-based, human; details: celecoxib 50 μM, nimesulide 100 μM, IL6 25-50 ng/ml
Description: Experiments were then performed to determine if STAT3 is phosphorylated following exposure to IL6.
The same cells were treated with 50 μM of a potent phosphatase inhibitor, peroxovanadate (POV), to determine if the nimesulide-mediated inhibition of phosphorylation of STAT3 by IL6 was due to activation of one or more phosphatases. […] Therefore, the inhibitory effect of nimesulide on phosphorylation of STAT3 by IL6 may be caused by activation of one or more phosphatases, because the inhibitor could partially reverse the reduced phosphorylation of STAT3 by nimesulide. It was noted that POV alone had no effect on phosphorylation of STAT3 in the absence of IL6.

[7] = system: c-Jun; assay: Western blot of c-Jun protein in LNCaP cells; assay type: cell-based, human; details: 24 h of treatment
Description: as §1

[8] = system: AR/ARE (hK2 3xARE-SV40 minimal promoter); assay: hK2 3xARE luciferase reporter assay in LNCaP cells; details: P<0.05, 24 h
[9] = system: hK2; assay: IL6-induced hK2 protein expression in LNCaP cells; assay type: cell-based, human; details: 50 μM, IL6 50 ng/ml, 72 hrs, p<0.05

SMILES: Cc1ccc(-c2cc(C(F)(F)F)nn2-c2ccc(S(N)(=O)=O)cc2)cc1 [Celecoxib]
- IL6-induced PSA expression [1]: significantly inhibited
- STAT3-specific responsive element-mediated luciferase expression activated by IL6 [2]: inhibited
- transcription activities of the AR promoter (−1380/+577) [3]: repressed
- androgen-up-regulated FKBP51 protein expression [4]: alleviated
- AR protein expression ([5]; 25 μM): may not have an observable inhibitory effect
- AR protein expression ([5]; concentrations used in the transfections): reduced
- phosphorylation of STAT3 by IL6 [6]: not affected
- c-Jun protein [7]: strongly induced
- AR/ARE-mediated gene expression (hK2 3xARE reporter) [8]: significantly reduced
- IL6-induced hK2 expression [9]: significantly inhibited
